Assay results published in US8309589B2, “Fluorine-containing organosulfur compound and pesticidal composition comprising the same” (Sumitomo Chemical Company, Limited, priority 2007, dated 2012).
Some results were stated once for a whole list of compounds, not compound by compound.

Key:
[1] = system: Musca domestica; assay: Test Example 3: filter paper with sucrose bait, Musca domestica; type: in vivo; conditions: 500 ppm, 0.7 ml on filter paper; 10 female imagoes; after 24 hours
[2] = system: Culex pipiens pallens; assay: Test Example 5: larvae in treated water, Culex pipiens pallens; type: in vivo; conditions: active ingredient concentration 3.5 ppm in water; 20 last-instar larvae; one day after

| Compound | pest death rate [1] | pest death rate [2] |
| --- | --- | --- |
| CC(C)(C)c1cc(CSCCC(F)(F)F)no1 [present compound (2), 5-tert-butyl-3-[(3,3,3-trifluoropropylsulfanyl)methyl]isoxazole] | ≥ 90% | ≥ 95% |
| CC(SCCC(F)(F)F)c1ccc(Cl)s1 (stereo not drawn) [present compound (1), 2-chloro-5-[1-(3,3,3-trifluoropropylsulfanyl)ethyl]thiophene] | – | ≥ 95% |
| CC(C)(C)n1cc(CSCCC(F)(F)F)cn1 [present compound (4), 1-tert-butyl-4-[(3,3,3-trifluoropropylsulfanyl)methyl]-1H-pyrazole] | ≥ 90% | – |
| FC(F)(F)CCSCn1cnc(C(F)(F)F)c1 [present compound (3), 4-trifluoromethyl-1-[(3,3,3-trifluoropropylsulfanyl)methyl]-1H-imidazole] | ≥ 90% | ≥ 95% |
